In patent US20070265223A1, “COMPOSITIONS AND METHODS OF ENHANCING SURVIVABILITY AND REDUCING INJURY OF CELLS, TISSUES, ORGANS, AND ORGANISMS UNDER HYPOXIC OR ISCHEMIC CONDITIONS” (IKARIA, INC., priority 2006, published 2007) one finds lowest subcutaneous temperature data, which are given here for one compound.

Molecules are shown by their SMILES.

The test system of this data set is mice subjected to lethal hypoxia. Put plainly: Protection of mice from lethal hypoxia using 5′-AMP. It counts as in vivo, mouse (C57BI/6). The settings on record: 4% oxygen for 60 min. As for the experimental part:
The ability of 5′-AMP to protect mice from lethal hypoxia was determined by comparing the effects of hypoxia on mice treated with 5′-AMP to the effects of hypoxia on untreated mice. Male C57BI/6 mice, 5-6 weeks old, with implanted jugular vein catheter (Taconic) were implanted dorsally with a subcutaneous RFID temperature sensor (IPTT-300, Bio Medic Data Systems, Inc.) and allowed to recover for at least 24 hours. Adenosine-5′-monophosphate (AMP sodium salt, Sigma) was dissolved in water, the osmolarity was adjusted with sodium chloride to 300 mOsm, the pH was adjusted with NaOH to 6.3, and the solution was filtered through a 0.2 um filter. The final AMP concentration was 40 mM. Mice were placed into a tall glass-bottom jar with opaque walls and infused via the jugular vein at a rate of 0.8 ul/min for 59.5 min followed by 1.6 ul/min for 12.8 min (total AMP dose=145 umol/kg) with a syringe pump (Harvard Apparatus), until their subcutaneous temperature had decreased to about 33° C. The infusion was stopped, and the mice were exposed for 60 min to an atmosphere of 4% oxygen constructed by mixing air and nitrogen using mass flow controllers (Sierra Instruments). During the infusion and exposure to hypoxia, the animals' subcutaneous temperature was read every 3-5 min and their vital signs were monitored. […] A control mouse was exposed to hypoxia, and its time of death was recorded. […]

Consider `Nc1ncnc2c1ncn2[C@@H]1O[C@H](COP(=O)(O)O)[C@@H](O)[C@H]1O` [5′-AMP, Adenosine-5′-monophosphate], for which the lowest subcutaneous temperature (mouse MJVC80, total AMP dose 145 umol/kg) came out at 23.4 °C and the lowest subcutaneous temperature (mouse MJVC83, total AMP dose 69 umol/kg) amounted to 24 °C.
